Test results from paper PMC7819943, “Rice protein-binding microarrays: a tool to detect cis-acting elements near promoter regions in rice”.
This is one part of the list.

What follows are sequences tested against T1, OsSMF1 (Oryza sativa, UniProt Q6ZLB0 1-436) (assay: protein-binding microarray (RPBM); PBS, 2% BSA, 51.3 ng/ul salmon testes DNA, 50 uM zinc acetate, 200 nM TF, 25 C, 1 h; high values mean tight binding). Details: protein: recombinant; tags: N-terminal polyhistidine and DsRed monomer fusion (pET32a); chain copies: 2; label: CyDye5-dUTP incorporated in the synthesized complementary strand; 3' TTTTT single-stranded linker to array surface; dsDNA, one strand shown.
T1 sequence: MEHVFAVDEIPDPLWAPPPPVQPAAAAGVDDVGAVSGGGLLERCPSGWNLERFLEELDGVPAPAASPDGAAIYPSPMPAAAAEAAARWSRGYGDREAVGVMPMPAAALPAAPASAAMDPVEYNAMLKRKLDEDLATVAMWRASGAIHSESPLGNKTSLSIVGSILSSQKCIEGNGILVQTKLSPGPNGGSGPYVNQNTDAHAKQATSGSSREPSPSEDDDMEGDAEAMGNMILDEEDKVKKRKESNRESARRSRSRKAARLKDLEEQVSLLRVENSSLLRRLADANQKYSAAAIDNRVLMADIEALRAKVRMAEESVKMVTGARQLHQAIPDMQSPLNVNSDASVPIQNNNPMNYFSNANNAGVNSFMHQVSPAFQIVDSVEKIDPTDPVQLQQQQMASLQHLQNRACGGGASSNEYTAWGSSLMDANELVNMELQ
In short: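 Using Ni–NTA, transcription factors fused N-terminally to polyhistidine and DsRed were purified after expression in E. coli BL21-CodonPlus. These were incubated at 200 nM with a blocked, double-stranded custom Agilent array for 1 h at 25 °C in a buffer containing 50 µM zinc acetate, and the array was washed. The binding signal is per-feature fluorescence intensity (arbitrary units) on an Axon 4000B scanner.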

Sequence | binding signal
CGGGTCACCCACGCAACGCCGCCTCACGCCGCCGCACCATCGGAGTCACCTAGTGCAG | 5280 fluorescence intensity (a.u.)
CACTGACACGAACCGCCATAGCGGAGCCACCTCCACGTCGCGGAGTCACCTAGTGCAG | 3730 fluorescence intensity (a.u.)
CTCTCGAGGATGAAAACTCTTTCCCGGATGCACGCCAATCCGGAGTCACCTAGTGCAG | 3450 fluorescence intensity (a.u.)
ATTGACGCGCCTCGGTATTACCTCACTAGCTGCGTCATTGCGGAGTCACCTAGTGCAG | 6460 fluorescence intensity (a.u.)
GCTGCAGACACGATTAGGAGATCGTGCATTGCCACCATCGCGGAGTCACCTAGTGCAG | 3290 fluorescence intensity (a.u.)
ATCTCGGAAGAAGGTTTTATTGCCCTGTACAAGCTTGCAACGGAGTCACCTAGTGCAG | 3790 fluorescence intensity (a.u.)
TAAGCGCAGGGTATCGACGCGATGGACACTAGGCATGGCCCGGAGTCACCTAGTGCAG | 3630 fluorescence intensity (a.u.)
TGCACACTATCATTACTATACACGTATATATTTCATCAGCCGGAGTCACCTAGTGCAG | 3700 fluorescence intensity (a.u.)
CTGAGCTGTTGTCATGCGTAGCAATGTGTTTCTCCATACTCGGAGTCACCTAGTGCAG | 3140 fluorescence intensity (a.u.)
TTGCCAGTTTGTGCTGGAGTACACATCATTGCTGATTCAACGGAGTCACCTAGTGCAG | 7990 fluorescence intensity (a.u.)
TGTATGTATCATATGCAGATCGATGGACACGTATTAAGCTCGGAGTCACCTAGTGCAG | 5490 fluorescence intensity (a.u.)
CGCGCCCACGCCAACGCCACCACGACCCGTTCCGTCTGTTCGGAGTCACCTAGTGCAG | 3470 fluorescence intensity (a.u.)
CATCTTCATCAGTTTCGCCTATGGACGTGTCATGTTATCTCGGAGTCACCTAGTGCAG | 4750 fluorescence intensity (a.u.)
TTGGGTTCAGTATGGACCGGGTCCACGCCTCACCTCGCCTCGGAGTCACCTAGTGCAG | 3160 fluorescence intensity (a.u.)
TGATTTACTGCATGTGAGCTTGTTCGAGAGAGCATTTGCCCGGAGTCACCTAGTGCAG | 21600 fluorescence intensity (a.u.)
AATCCAATCTTGACTTGGCAGTTGTGTTCGCCACCGAACGCGGAGTCACCTAGTGCAG | 4240 fluorescence intensity (a.u.)
TATTCCAGCATTGTCTTAAACCGTAAATAATACAAATATACGGAGTCACCTAGTGCAG | 28500 fluorescence intensity (a.u.)
GCCCTTGCCGCCACGCCACCCGCCCGCCGCTACCGCCGCTCGGAGTCACCTAGTGCAG | 7150 fluorescence intensity (a.u.)
GTTTGAGGAAGAAAGCACGTCGTTTTCCACGTGCACGCTTCGGAGTCACCTAGTGCAG | 6500 fluorescence intensity (a.u.)
CAGGCGCCACTACTGATGCGTCACTGTCAGTGTGGGCCCCCGGAGTCACCTAGTGCAG | 19400 fluorescence intensity (a.u.)
GGGGTGGAAGTCCGTCTACTGCGTCACCCACCGCGACGCCCGGAGTCACCTAGTGCAG | 4030 fluorescence intensity (a.u.)
GTCAGTCCTTGTCACGTTTGCTACGGCCATCCCGTCCAATCGGAGTCACCTAGTGCAG | 4200 fluorescence intensity (a.u.)
TGTTACGCGTCTCCACGTGCCTCCTCTCCCTCCACCGGACCGGAGTCACCTAGTGCAG | 6880 fluorescence intensity (a.u.)
CTTAGTGTCGATCAACCTCCTTAGCTCGATGATGCAGCGTCGGAGTCACCTAGTGCAG | 3350 fluorescence intensity (a.u.)
TACTTGAAATTCTTGTCATTGACATGTAGGGCAGATTGCACGGAGTCACCTAGTGCAG | 3630 fluorescence intensity (a.u.)
AGATGGCTTGTCGTGGCTGCTGTGGCGCATGTACCCGGATCGGAGTCACCTAGTGCAG | 3390 fluorescence intensity (a.u.)
ACGTAATGTGTGTATGACAGGTAAGATTAGGTATTAATAGCGGAGTCACCTAGTGCAG | 4950 fluorescence intensity (a.u.)

As entered above.
Entry for GCTGCAGACACGATTAGGAGATCGTGCATTGCCACCATCGCGGAGTCACCTAGTGCAG under binding signal: 3290 fluorescence intensity (a.u.)
Entry for CGGGTCACCCACGCAACGCCGCCTCACGCCGCCGCACCATCGGAGTCACCTAGTGCAG under binding signal: 5280 fluorescence intensity (a.u.)
Entry for AGATGGCTTGTCGTGGCTGCTGTGGCGCATGTACCCGGATCGGAGTCACCTAGTGCAG under binding signal: 3390 fluorescence intensity (a.u.)
Entry for ATTGACGCGCCTCGGTATTACCTCACTAGCTGCGTCATTGCGGAGTCACCTAGTGCAG under binding signal: 6460 fluorescence intensity (a.u.)
Entry for ATCTCGGAAGAAGGTTTTATTGCCCTGTACAAGCTTGCAACGGAGTCACCTAGTGCAG under binding signal: 3790 fluorescence intensity (a.u.)

Following part.

Sequence | binding signal
GATAGTTCAGTGGCAAAGGATACGTGGTTTCAACCCCGATCGGAGTCACCTAGTGCAG | 4380 fluorescence intensity (a.u.)
TGCTACTCGTCACCAGATGTTTCATAGGTCCAACTAGGGGCGGAGTCACCTAGTGCAG | 3370 fluorescence intensity (a.u.)
TCCTAATTTCACACCGTCTCTTCCTTGTAACCATCTGAAACGGAGTCACCTAGTGCAG | 3500 fluorescence intensity (a.u.)
GCAAATTGCCACGTAAGCGCCACGTCAGATCGAGACCGAGCGGAGTCACCTAGTGCAG | 28900 fluorescence intensity (a.u.)
AGCACTTAACGGAGGGTTGCTGGCGAAACCTTAACGGCAACGGAGTCACCTAGTGCAG | 7000 fluorescence intensity (a.u.)
AGGGAGAATTGATTATCAGCATGGCAATGGAGGAACATGCCGGAGTCACCTAGTGCAG | 3580 fluorescence intensity (a.u.)
CGCATTGTACTAATTAATGACAGGAATGAGGATTATTATGCGGAGTCACCTAGTGCAG | 14800 fluorescence intensity (a.u.)
GATAACCTTGTGACTTGTTTTGACGTGTGACGTTGGCGGACGGAGTCACCTAGTGCAG | 11200 fluorescence intensity (a.u.)
CGCTCCCAGTCAGCGTGCCACGTCAGACGGTCAATGTGCCCGGAGTCACCTAGTGCAG | 33800 fluorescence intensity (a.u.)
ACACACACACACACACACACACACACACACACACACACACCGGAGTCACCTAGTGCAG | 5250 ± 404 fluorescence intensity (a.u.)
ACAGCAATGTCAGACATAAACTTATTCCATCTTGCACTTTCGGAGTCACCTAGTGCAG | 3410 fluorescence intensity (a.u.)
CGCCGTGACAATTCCCGCTGTATCATCCGTTGTTCGGATCCGGAGTCACCTAGTGCAG | 3200 fluorescence intensity (a.u.)
TAAGTGGACCTATAGGTGCACACGTGGGGAGAGGGGCGTGCGGAGTCACCTAGTGCAG | 5690 fluorescence intensity (a.u.)
GCCGAGACCAAGGCCGCTCTCCACGTCGATTCTCCAGTGTCGGAGTCACCTAGTGCAG | 5640 fluorescence intensity (a.u.)
ACCCAGATCGTCTAGCCCACCACCTTATGGAGTTAGTCGGCGGAGTCACCTAGTGCAG | 6100 fluorescence intensity (a.u.)
CCCCACAGCCCCACTCGGGACCAAACACACCACACCCCGCCGGAGTCACCTAGTGCAG | 3180 fluorescence intensity (a.u.)
TGTCACCGTCGTCGACGTCAGCTACAACTGCCTCTCCGGCCGGAGTCACCTAGTGCAG | 7220 fluorescence intensity (a.u.)
AAAGCACACACACTCTCTCTTAAGCGTCACTTCAGAGGTTCGGAGTCACCTAGTGCAG | 4930 fluorescence intensity (a.u.)
CTCCCACCCACTCACCGTTTCCACCCGAATCATTCCGTCCCGGAGTCACCTAGTGCAG | 8610 fluorescence intensity (a.u.)
ACTTCTCCTTGAGCCAGAATGACACATTAACACTGTCAACCGGAGTCACCTAGTGCAG | 3720 fluorescence intensity (a.u.)
CTACGGAATGTCAGTCAGCTCTGATATGTCGATTGTAGTGCGGAGTCACCTAGTGCAG | 3690 fluorescence intensity (a.u.)
GAGCGGTGGTGACAGTGCGTGGAACGACAGCTAGTGGTTGCGGAGTCACCTAGTGCAG | 4260 fluorescence intensity (a.u.)
TTATTAAGCCTAATTAATCCATCATTAGTAAATATTTACTCGGAGTCACCTAGTGCAG | 3780 fluorescence intensity (a.u.)
CATGACATCGTCATTGACCGTGTCATCGTCAAGATGGATGCGGAGTCACCTAGTGCAG | 8800 fluorescence intensity (a.u.)
CAATCTCTTGACTATTTCTGCTGTCCAAGTCCAACAACGCCGGAGTCACCTAGTGCAG | 3320 fluorescence intensity (a.u.)
TCTTGCAATGATGTGTGTGTGCATGTGTTTGTCTGTGCTACGGAGTCACCTAGTGCAG | 3780 fluorescence intensity (a.u.)
GGTGGTGAGACGTTGACGTGGTGGCTACGTATCAAAGGTGCGGAGTCACCTAGTGCAG | 9640 fluorescence intensity (a.u.)
